Test results from publication PMC8629984.

Molecular target: T1, His-tagged ATG9B (ATG9B^His) (human) (UniProt Q674R7)
T1 sequence: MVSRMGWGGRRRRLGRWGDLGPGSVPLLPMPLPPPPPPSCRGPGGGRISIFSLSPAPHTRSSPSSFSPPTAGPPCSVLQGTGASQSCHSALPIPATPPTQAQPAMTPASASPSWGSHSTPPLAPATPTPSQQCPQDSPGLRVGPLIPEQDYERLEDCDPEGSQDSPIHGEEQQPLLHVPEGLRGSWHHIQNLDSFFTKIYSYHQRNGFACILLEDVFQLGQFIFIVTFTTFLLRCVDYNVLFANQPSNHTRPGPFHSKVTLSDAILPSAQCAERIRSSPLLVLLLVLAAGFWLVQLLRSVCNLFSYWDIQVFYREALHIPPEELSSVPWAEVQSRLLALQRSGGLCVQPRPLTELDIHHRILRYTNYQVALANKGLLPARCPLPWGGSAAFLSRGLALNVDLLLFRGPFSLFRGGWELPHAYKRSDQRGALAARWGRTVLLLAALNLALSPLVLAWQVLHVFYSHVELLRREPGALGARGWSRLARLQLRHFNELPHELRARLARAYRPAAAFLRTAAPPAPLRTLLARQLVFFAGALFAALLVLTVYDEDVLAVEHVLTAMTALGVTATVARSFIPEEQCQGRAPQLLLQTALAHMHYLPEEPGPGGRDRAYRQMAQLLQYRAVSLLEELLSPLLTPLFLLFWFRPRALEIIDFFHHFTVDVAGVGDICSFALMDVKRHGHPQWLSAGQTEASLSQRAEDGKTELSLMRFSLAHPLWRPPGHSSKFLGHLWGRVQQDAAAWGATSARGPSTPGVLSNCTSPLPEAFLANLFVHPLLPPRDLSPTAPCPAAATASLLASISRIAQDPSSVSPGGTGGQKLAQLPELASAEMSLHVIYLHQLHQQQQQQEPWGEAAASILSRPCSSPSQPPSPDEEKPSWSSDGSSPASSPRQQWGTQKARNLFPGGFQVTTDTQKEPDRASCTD
Test: co-IP; HEK293T cells transfected with His-tagged ATG9B constructs and Flag-tagged MYH9 constructs, RIPA lysates, IP with anti-Flag or anti-His, western blot

binding: binds
Substance: Flag-MYH9 truncation with the head domain (aa77–777) (human) (domain or fragment)

These are yes or no findings as the source states them, for the method shown. Binding seen in cells or lysates may run through a third protein. Binding calls can cover weak binding; strength is not graded here. Sequences can lack the tags named with a protein.
